According to patent US20210147525A1 (University of California, published 2021):

B1: 8-F11 (antibody, V domains shown)
VH: QVQLVQSGAEVKKPGSSVKVSCKASGGTFSNYAINWVRQAPGQGLEWMGRIIPTLGIANYAQKFQGRVTITADESTSTAYMELSSLRSEDTAVYYCARAAYFAGPAARYGYFDIWGQGTLVTVSS
VL: EIVLTQSPGTLSLSPGERATLSCRASQSVRSNYLAWYQQKPGQAPRLLIYDASSRATGIPDRFSGSGSGTDFTLTISRLEPEDFAVYYCQQYAYAPWTFGQGTKVEIK
B2: 8-H7 (antibody, V domains shown)
VH: EVQLLESGGGLVQPGGSLRLSCAASGFTFSNYAMSWVRQAPGKGLEWVSAIYGSGGRTYYADSVKGRFTISRDNSKNTLYLQMNSLRAEDTAVYYCARLRYGFYQFDYWGQGTLVTVSS
VL: DIQMTQSPSSLSASVGDRVTITCRASQSIRNYLNWYEQKPGKAPKLLIYAASSLQSGVPSRFSGSGSGTDFTLTISSLQPEDFATYYCQQSYSYPLTFGQGTKVEIK
B3: 10-B5 (antibody, V domains shown)
VH: EVQLLESGGGLVQPGGSLRLSCAASGFTFSSYAMSWVRQAPGKGLEWVSAIYGAGGKTYYADSVKGRFTISRDNSKNTLYLQMNSLRAEDTAVYYCARISHGWGFDVWGQGTLVTVSS
VL: B2 VL with S28D, R30S, E37Q, S93T
B4: 10-C1 (antibody, V domains shown)
VH: EVQLLESGGGLVQPGGSLRLSCAASGFTFSNYAMSWVRQAPGKGLEWVSVIYGSGTRTYYADSVKGRFTISRDNSKNTLYLQMNSLRAEDTAVYYCARVASSYHYAFDYWGQGTLVTVSS
VL: B2 VL with R30S, N31T, E37Q, P59S, S93T, Y94F
B5: 8-D9 (antibody, V domains shown)
VH: QVQLVQSGAEVKKPGSSVKVSCKASGGTFSDEAIHWVRQAPGQGLEWMGRIIPVLGIASYAQKFQGRVTITADESTSTAYMELSSLRSEDTAVYYCARGLSRRAFYFDYWGQGTLVTVSS
VL: B2 VL with S28T, R30G, E37Q, A50V, S93R, L96Y
B6: 9-H9 (antibody, V domains shown)
VH: EVQLLESGGGLVQPGGSLRLSCAASGFTFSNYAMSWVRQAPGKGLEWVSTIYGSGVRTYYADGVKGRFTISRDNSKNTLYLQMNSLRAEDTAVYYCARGWIPHSFYAFDYWGQGTLVTVSS
VL: B2 VL with R30S, N31S, E37Q, A50G, Y92F, S93T, Y94A, L96V
B7: 2-C8 (antibody, V domains shown)
VH: EVQLLESGGGLVQPGGSLRLSCAASGFTFTNYAMSWVRQAPGKGLEWVSSISGSGISTYYADSVKGRFTISRDNSKNTLYLQMNSLRAEDTAVYYCARGPGPGYWYAFDVWGQGTLVTVSS
VL: B2 VL with S28T, R30S, N31R, E37Q, S93T, L96I
B8: 9-E5 (antibody, V domains shown)
VH: QVQLVESGGGLVKPGGSLRLSCAASGFTFSNAWMSWVRQAPGKGLEWVGRIKSKIEGGTTDYAPPVKGRFTISRDDSKNTLYLQMNSLKTEDTAVYYCARDPTWYVSGHYYGFDVWGQGTLVTVSS
VL: B2 VL with R30A, E37Q, S91Y, Y92F, Y94T, L96P
B9: 9-G3 (antibody, V domains shown)
VH: EVQLLESGGGLVQPGGSLRLSCAASGFTFSSYAMSWVRQAPGKGLEWVSTIYRSGGRTYYADSVKGRFTISRDNSKNTLYLQMNSLRAEDTAVYYCARGAYPLGSYYGFDPWGQGTLVTVSS
VL: B2 VL with R30A, N31T, E37Q, S93T, L96V
B10: 10-A9 (antibody, V domains shown)
VH: B7 VH
VL: B2 VL with S28T, R30S, N31R, E37Q, A50S, S93T, L96I
B11: 10-C3 (antibody, V domains shown)
VH: B4 VH with T56G, A100E, S101D, S102T, Y103S, H104Y, A106G, F107M
VL: B2 VL with S28T, R30G, N31I, E37Q, K45T, S93T
B12: 9-B3 (antibody, V domains shown)
VH: QVQLVESGGGVVQPGRSLRLSCAASGFTFSDYGMHWVRQAPGKGLEWVAVISYDGSRKYYANSVKGRFTISRDNSKNTLYLQMNSLRAEDTAVYYCARGSYSDGFDVWGQGTLVTVSS
VL: B2 VL with V19M, R30S, E37Q, S93A, Y94P, L96Y
B13: 9-G1 (antibody, V domains shown)
VH: B6 VH with S30G, Y52S, G53A, S54G, V56S, G63S, I101Y, H103I, S104L, F105Y
VL: B2 VL with R30G, E37Q, A50S, S91T, S93T, Y94I
B14: 10-C9 (antibody, V domains shown)
VH: B2 VH with R100E, Y101A, Q105S, F106L, Y108I
VL: B2 VL with S28T, R30G, N31T, E37Q
B15: 8-F6 (antibody, V domains shown)
VH: EVQLLESGGGLVQPGGSLRLSCAASGFTFSSYAMSWVRQAPGKGLEWVSVISGSGGNTYYADSVKGRFTISRDNSKNTLYLQMNSLRAEDTAVYYCAREVRHDSYYYYYYSGMDVWGQGTLVTVSS
VL: EIVMTQSPATLSVSPGERATLSCRASQSVYNNLAWYQQKPGQAPRLLIYDASTRATGIPARFSGSGSGTEFTLTISSLQSEDFAVYYCQQYSDYPFTFGQGTKVEIK
B16: 9-E4 (antibody, V domains shown)
VH: B15 VH
VL: B15 VL
B17: 9-C2 (antibody, V domains shown)
VH: B15 VH
VL: B15 VL
B18: 9-D8 (antibody, V domains shown)
VH: QVQLVQSGAEVKKPGSSVKVSCKASGGTFSSEAISWVRQAPGQGLEWMGRIIPISGRPNYAQKFQGRVTITADESTSTAYMELSSLRSEDTAVYYCAREASYYVAGYYRYYGFDVWGQGTLVTVSS
VL: B15 VL with Q27R, V29L, Y30S, S92N, D93A, Y94W, F96Y
B19: 9-B10 (antibody, V domains shown)
VH: EVQLLESGGGLVQPGGSLRLSCAASGFTFSSYAMSWVRQAPGKGLEWVSGISESGGGTYYADSVKGRFTISRDNSKNTLYLQMNSLRAEDTAVYYCARLVPWQLAFDVWGQGTLVTVSS
VL: B15 VL with S92Y, D93Y, Y94W, F96I

target: human PLXDC1 protein, biotinylated (bait of the antibody library screen) (human); experiment: antibody library screen on biotinylated PLXDC1 with activating compound

binding, binds:
B1
B2
B3
B4
B5
B6
B7
B8
B9
B10
B11
B12
B13
B14
B15
B16
B17
B18
B19

Where a chain is given by its changes, count along the chain named. Results are given in words; binding and its absence hold for the method and conditions named. Binding can be weak; no strength is given.
